Measurements reported in PubChem BioAssay AID504327 (National Center for Advancing Translational Sciences (NCATS), 2011).
Where “and” joins values, the source holds several entries; their conditions need not be identical. Equal entries are not always repeated. About 820 (0.21%) of roughly 390,000 compounds were called active. Inconclusive means that the source gave no clear call. Such entries were picked first, then a sample of the others. Calls come from the whole dose curve; as a rule, active = well fitted inhibition curve with a large enough effect; inconclusive = small, poorly fitted or top-dose-only effect, or another doubt; inactive = no such curve, though single readings can be large or run the other way. A potency beside an inconclusive call is a rough fit, not a confirmed value.
Potency is the fitted concentration of half-maximal effect.

The chains behind the UniProt entries cited, without tags or fusion partners.
UniProt Q92830, whole entry, looked up: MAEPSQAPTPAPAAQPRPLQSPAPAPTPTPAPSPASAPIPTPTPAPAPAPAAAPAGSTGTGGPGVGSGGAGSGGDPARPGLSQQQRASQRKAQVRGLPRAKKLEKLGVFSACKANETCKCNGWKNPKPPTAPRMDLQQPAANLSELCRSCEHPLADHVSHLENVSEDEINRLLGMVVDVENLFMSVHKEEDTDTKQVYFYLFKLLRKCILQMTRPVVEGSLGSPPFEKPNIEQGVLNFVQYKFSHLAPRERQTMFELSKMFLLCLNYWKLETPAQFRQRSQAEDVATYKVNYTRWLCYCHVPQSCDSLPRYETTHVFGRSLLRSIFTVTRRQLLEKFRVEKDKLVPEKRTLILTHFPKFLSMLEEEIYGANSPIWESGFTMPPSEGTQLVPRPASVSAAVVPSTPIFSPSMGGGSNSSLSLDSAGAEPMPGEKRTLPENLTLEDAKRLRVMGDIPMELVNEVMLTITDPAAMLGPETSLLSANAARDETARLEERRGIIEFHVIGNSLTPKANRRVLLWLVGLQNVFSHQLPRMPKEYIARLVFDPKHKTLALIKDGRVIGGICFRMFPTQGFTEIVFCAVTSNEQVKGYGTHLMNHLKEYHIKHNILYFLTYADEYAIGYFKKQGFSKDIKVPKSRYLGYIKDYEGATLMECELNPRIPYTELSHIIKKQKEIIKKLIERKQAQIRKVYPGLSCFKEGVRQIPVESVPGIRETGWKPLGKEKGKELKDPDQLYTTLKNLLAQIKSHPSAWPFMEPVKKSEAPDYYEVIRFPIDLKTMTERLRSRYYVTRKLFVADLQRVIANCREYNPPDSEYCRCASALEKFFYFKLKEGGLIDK

Each compound was assayed against Histone acetyltransferase KAT2A (Homo sapiens) (UniProt Q92830) (assay: qHTS Assay for Inhibitors of GCN5L2). Conditions: GCN5L2 HAT assay, ThioGlo1 CoA-SH fluorescence; series mostly up to 58.9 µM.
Method in brief: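 Compounds, pin-transferred from DMSO stocks, meet 20nM GCN5L2 for 15 min before the reaction begins with H3(1-25) peptide (75uM) and acetyl-CoA (70uM). Thiol-reactive ThioGlo1 reports CoA release over 20 min at room temperature.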
For `O=C(/C=C\Nc1ccccn1)c1ccc(Cl)cc1`, the Potency was inconclusive: 35.5 µM [inhibitor, single point].
With `COc1ccccc1C(=O)NCc1nc2cccnc2n1Cc1ccc(F)cc1` the Potency was “inactive”.
`O=C(CSc1nc2ccccc2s1)N1CCOCC1` was tested, and the Potency was inconclusive: 25.1 µM [inhibitor, single point].
For `O=C(CCc1ccccc1)NNC(=O)COc1ccc(Cl)cc1`, the Potency was inconclusive: 0.794 µM [inhibitor, full curve, poor fit].
With `COC(=O)CSc1nnc(COc2cccc3ccccc23)o1` the Potency was “inactive”.
With `CCn1c(-c2ccc(S(=O)(=O)N3CCOCC3)cc2)csc1=Nc1ccc(C)c(Cl)c1` the Potency was “inactive”.
In the case of `Cc1ccc(-c2nn3c(C)nnc3s2)cc1NC(=O)c1ccc(-c2ccc(Cl)cc2Cl)o1`, the Potency is reported as “inactive”.
In the case of `O=C(CSc1nnc2[nH]c(=O)cc(-c3ccccc3)n12)Nc1ccc(F)cc1F`, the Potency is reported as inconclusive: 25.1 µM [inhibitor, single point].
With `Cc1ccc(NC(=O)CSCC(=O)Nc2ccccc2N2CCCCC2)cc1` the Potency was inconclusive: 8.91 µM [inhibitor, partial curve].
In the case of `NNc1ccc(Cl)c(C(=O)O)c1`, the Potency is reported as “inactive”.
For `Cc1ccc(NC(=O)CSc2nc3c(c(=O)[nH]2)CCC3)c(C)c1`, the Potency was inconclusive: 0.355 µM [inhibitor, partial curve, poor fit].
For `COc1ccccc1OCCCOc1cccc(/C=C2\SC(=O)NC2=O)c1`, the Potency was inconclusive: 10 µM [inhibitor, partial curve].
With `O=c1c2ccccc2sn1-c1ccc(F)cc1` the Potency was active: 2 µM.
For `NC[C@@H]1O[C@H](O[C@@H]2[C@H](O[C@@H]3O[C@H](CO)[C@@H](O)[C@@H]3O)[C@@H](O)[C@@H](N)C[C@H]2N)[C@@H](N)[C@H](O)[C@@H]1O`, the Potency was inconclusive: 10 µM [inhibitor, partial curve].
In the case of `Cn1ncc(C(=O)N2CCN(c3ccc(F)cc3)CC2)c1C1CCN(C(=O)OC(C)(C)C)CC1`, the Potency is reported as “inactive”.
For `O=c1c(O)c(-c2ccccc2)oc2cc(O)ccc12`, the Potency was inconclusive: 31.6 µM [inhibitor, single point].
With `CSCc1ccc(C(=O)NC(C)c2cnn(-c3ccccn3)c2C)o1` (centres undefined) the Potency was “inactive”.
In the case of `O=C(c1cc(-c2cccc(O)c2)on1)N1CCCCC1`, the Potency is reported as inconclusive: 35.5 µM [inhibitor, single point].
`Cc1ccccc1OCC(=O)Nc1ccc2[nH]ncc2c1` was tested, and the Potency was “inactive”.
For `COc1ccc2[nH]c(=O)c(CN(Cc3ccc(C)cc3)Cc3nnnn3CC3CCCO3)cc2c1` (centres undefined), the Potency was inconclusive: 0.126 µM [inhibitor, partial curve, poor fit].
In the case of `CCSc1nnc(NC(=O)COc2ccc3ccccc3c2)s1`, the Potency is reported as inconclusive: 1 µM [inhibitor, full curve, poor fit].
In the case of `Nc1c(S(=O)(=O)O)cc(Nc2cccc3ccccc23)c2c1C(=O)c1ccccc1C2=O`, the Potency is reported as active: 12.6 µM.
In the case of `CCC(C)NC(=O)c1cc2c(=O)n3ccccc3nc2s1` (centres undefined), the Potency is reported as inconclusive: 28.2 µM [inhibitor, single point].
In the case of `O=c1c(O)c(-c2ccc(O)cc2O)oc2cc(O)cc(O)c12`, the Potency is reported as “inactive and inconclusive: 15.8 µM [inhibitor, partial curve]”.
`O=C(Nc1c(C(=O)Nc2ccccc2F)oc2ccccc12)c1cc2ccccc2o1` was tested, and the Potency was “inactive”.
For `Nn1cc(-c2ccccc2)nc1SCC(=O)NCC1CCCO1` (centres undefined), the Potency was “inactive”.
`Cc1cc(Cl)ccc1OCCn1cncn1` was tested, and the Potency was “inactive”.
For `Cc1cccc(N2C(=O)CC(Sc3nnc(C)s3)C2=O)c1` (centres undefined), the Potency was “inactive”.
For `Cc1cc2[nH]c(=O)c(=O)[nH]c2cc1S(=O)(=O)NCc1ccc(Cl)cc1`, the Potency was inconclusive: 39.8 µM [inhibitor, single point].
`COc1cc(OC)c(NC(=O)CN(C)S(=O)(=O)c2ccc3[nH]c(=O)oc3c2)cc1Cl` was tested, and the Potency was “inactive”.
For `C[C@@]12CCC=C[C@H]1[C@H](c1ccc3ccccc3c1/C=C/c1ccccc1)N(Cc1ccccc1)C2=O`, the Potency was “inactive”.
In the case of `C[C@H](N)c1nnc(SCC(=O)c2ccc(Cl)cc2)o1`, the Potency is reported as “inactive”.
For `CCOc1cc(/C=C2/C(=O)ON=C2C)ccc1O`, the Potency was “inactive”.
With `CCOC(=O)CSc1n[nH]c(=O)n1CCc1ccccc1` the Potency was inconclusive: 39.8 µM [inhibitor, single point].
`CN(C)c1nc(N)nc(-c2cccnc2)n1` was tested, and the Potency was “inactive”.
`CCN(CC)CCCN(C(=O)c1ccccc1C)c1nc(-c2ccc(OC)cc2)cs1` was tested, and the Potency was “inactive”.
For `Cc1ccc(-c2cc3c(n2-c2ccc(C)cc2)CC(C)(C)CC3=O)cc1`, the Potency was “inactive”.
In the case of `CCCc1ccc(-c2cc(NC(=O)CSc3nnc(N)s3)n(-c3ccccc3)n2)cc1`, the Potency is reported as “inactive”.
In the case of `Cc1cc2c(cc1S(=O)(=O)CCC(=O)NCCc1ccccc1)OCC(=O)N2`, the Potency is reported as inconclusive: 0.447 µM [inhibitor, single point].
For `CC(=O)/C(=N/Nc1cccc(Cl)c1)Sc1nnc(C(O)c2ccccc2)n1-c1ccccc1` (centres undefined), the Potency was “inactive”.
For `CC(=O)Nc1c(NC(C)(C)C)c2ccccc2oc1=O`, the Potency was inconclusive: 31.6 µM [inhibitor, single point].
`Cc1ccc(S(=O)(=O)Nc2cc(Cl)c(O)c3ncccc23)cc1` was tested, and the Potency was inconclusive: 5.62 µM [inhibitor, full curve].
In the case of `c1ccc(OCc2nn3c(-c4ccco4)nnc3s2)cc1`, the Potency is reported as “inactive”.
With `C=CCn1c(SCC(=O)N2CCCC2)nc2scc(-c3cccs3)c2c1=O` the Potency was inconclusive: 0.282 µM [inhibitor, full curve, poor fit].
`CC(C)COc1ccc(CSCCNC(=S)Nc2ccccc2)cc1` was tested, and the Potency was inconclusive: 31.6 µM [inhibitor, single point].
With `O=C(C=C1SCCS1)/C=C/c1ccco1` the Potency was inconclusive: 39.8 µM [inhibitor, single point].
With `O=C(O)c1ccc(-c2nc(-c3ccccc3)c(-c3cccs3)[nH]2)cc1` the Potency was inconclusive: 20 µM [inhibitor, partial curve, poor fit].
`C=CCC1(CC=C)CCCN1C(=O)CC1C(=O)NCCN1Cc1cccc(OC)c1` (centres undefined) was tested, and the Potency was inconclusive: 0.891 µM [inhibitor, full curve].
In the case of `COc1ccc(-c2nc(S(=O)(=O)c3ccc(C)cc3)c(N3CCCC3)o2)cc1`, the Potency is reported as “inactive”.
